Data from the supplement of paper PMC5949888.
± gives the standard deviation of the averaged measurements. Most values lie at the floor of the assay. Slopes are relative: functional sequences can read slightly below zero.

Test system: Saccharomyces cerevisiae PS128 hsf1 delta, HSF1(1-493) fusion
Assay: growth estimate (transactivation domain function in HSF1 fusion, heat-shock survival) (a.u. (slope of normalised read count over time)); higher = stronger growth at 37°C, i.e. more transactivation activity
Conditions: library: random library

Row | Substance | growth estimate
1 | RVRAGHEIGSDSGH | < -0.25
2 | SLRPWGGPS | < -0.25
3 | LLGLGKCGGSDSVGREDVSR | < -0.25
4 | WSAGSFKLRADLRCITGSPG | < -0.25
5 | KRLIRPTWSFVYLQSVQIGT | < -0.25
6 | IGSCVAITHLGASGGLALHT | < -0.25
7 | LWTKLCTLIFYGGRFSALSQ | < -0.25
8 | NNRQKQDQLQLQAAIISPTT | -0.183
9 | TQSHGICPREAQTGATPARL | < -0.25
10 | TARVCR | < -0.25
11 | WSGMG | < -0.25
12 | CCAAAPVRDVPHIHLVGPEG | < -0.25
13 | IHDRFVVSRLPTGRSV | < -0.25
14 | LHSRLGCTQRRRIPGSWAQS | < -0.25
15 | ILADRKTPTFQSVPWTKGD | < -0.25
16 | LTPSSLSG | < -0.25
17 | TSWVLGTAKRASGPP | < -0.25
18 | VSQSREFTDIDVGRAESVIR | < -0.25
19 | LSHPSVS | < -0.25
20 | EGTS | < -0.25
21 | AYNRIYYWAASRPSVKDPVE | < -0.25
22 | LHLNS | < -0.25
23 | VLANIDDRCWSSRCWWSYHP | < -0.25
24 | RTLLTRRKSMCADSDQWRST | < -0.25
25 | HTG | < -0.25

Row | Substance | growth estimate
26 | HDPAEHFLAPQRSCSDCTRN | < -0.25
27 | DRISGNFKKGFQRAVEVRSQ | < -0.25
28 | SVRLSVSGALV | < -0.25
29 | GAPLL | < -0.25
30 | FAGLISISVTQ | < -0.25
31 | RPRLVGFS | < -0.25
32 | YKLFIWDRTSVTD | < -0.25
33 | CGDEVLQPGGRPASCVIEVR | < -0.25
34 | AFIRHVS | < -0.25
35 | SHWVDLPSEIGAFIEYQARP | -0.149
36 | KHDRFRSRGASLPRKNSCVG | < -0.25
37 | RWSVSRYGFGFLTY | < -0.25
38 | VSVTATRLAHASRY | < -0.25
39 | RCEGTLE | < -0.25
40 | LAPEHGFESVKERGRPMHFV | -0.228
41 | PSCVFISAFRFTGSCSSLPE | < -0.25
42 | SRTANEGQLADLSRRALRGS | < -0.25
43 | RGSSVTVEYENSISSEVASS | < -0.25
44 | PARGEHVCRATH | < -0.25
45 | VKLSSRNWVK | < -0.25
46 | MVEGAVILNQARVGRRQREI | -0.25
47 | KCTKGKPEPTSAAGARDSVL | < -0.25
48 | KQTEPHPIDKRRMLNGPFHG | < -0.25
49 | TPLLAGLRR | < -0.25
50 | IFGYEWQSGQVVPLLVVPRP | < -0.25

Row | Substance | growth estimate
51 | VRLIG | -0.174
52 | RRLCGTQLAGGTRLEFCSAA | < -0.25
53 | NGGQTCDKQALS | < -0.25
54 | SEVSRSTFHPSCSRG | < -0.25
55 | KST | < -0.25
56 | MSIFILR | < -0.25
57 | TGYYPFFSARSTLCEDRLRR | -0.178
58 | LPPAPRCAVMYLSRIRLWHG | < -0.25
59 | TQNSNTELGSLYQASGASKM | < -0.25
60 | LNHETAFSRGLLTAEIGKG | < -0.25
61 | FPS | -0.248 ± 0.003
62 | YPYVLAEDVAQNVLCCQQAH | < -0.25
63 | DFAIVSTSAVKRNNCRAPAP | < -0.25
64 | SNLLTRNHTPHRDTASVSSN | < -0.25
65 | GPYYTPAMGHTGPSNKKICA | < -0.25
66 | RIIAHVVYNSDPANGCQLAR | < -0.25
67 | IPGGMGSRRKTVGWGLQLLQ | < -0.25
68 | YPNPVSTHATISLIVVFVMR | < -0.25
69 | NTMEFDMLQLFMGRSQNRNY | < -0.25
70 | CTHPNKTVKRELFG | < -0.25
71 | KPRSYT | < -0.25
72 | RIPARRINAHRTDPLG | < -0.25
73 | LPDDVHHIPSW | < -0.25
74 | TATNAELPSDSSTHKLL | < -0.25
75 | MRGLVHIGLDWLGVRPGRC | -0.219

Look-ups from above:
Under growth estimate, YPNPVSTHATISLIVVFVMR has the entry < -0.25
Under growth estimate, LHLNS has the entry < -0.25
Under growth estimate, NNRQKQDQLQLQAAIISPTT has the entry -0.183
Under growth estimate, NTMEFDMLQLFMGRSQNRNY has the entry < -0.25
Under growth estimate, AYNRIYYWAASRPSVKDPVE has the entry < -0.25
Under growth estimate, LHSRLGCTQRRRIPGSWAQS has the entry < -0.25
Under growth estimate, KRLIRPTWSFVYLQSVQIGT has the entry < -0.25

The list goes on.

Row | Substance | growth estimate
76 | RVDHPKCRFYRRYCVIIARH | < -0.25
77 | GGTSNH | < -0.25
78 | LLGRQHQLWQSRKRCETERG | < -0.25
79 | SLKFLVFPR | < -0.25
80 | RKWILNNATWADTGRYRCRW | < -0.25
81 | QKRESASSE | -0.232
82 | DGPETEVFSLHEGL | < -0.25
83 | KRGTCSEQYSSLPAICLCAS | < -0.25
84 | SVSLEGEPSLTPA | < -0.25
85 | RPMG | < -0.25
86 | TGIFDRNWSAPGITKPGYRR | < -0.25
87 | ITLCIDLTKGRLRALEACAE | < -0.25
88 | TNSRGCRAINSLMFRWNQVI | < -0.25
89 | GGWNGGVAQGRDSPNAVYRW | < -0.25
90 | LRIIGREYFPERERYGGLSL | < -0.25
91 | KVGRR | < -0.25
92 | IWHDVKSKGK | < -0.25
93 | VPTVSRASGLYIFRRDLPGC | < -0.25
94 | DFVLSWYHCGESREY | < -0.25
95 | QTVRAMWRLDCVSGDIMTAF | < -0.25
96 | GFYSLLN | < -0.25
97 | QRQSATHQREPGLTGSSVFT | < -0.25
98 | SVDTPVSRYTVQFRVRPCA | < -0.25
99 | VSTGDEIISESMNQGRQLWV | < -0.25
